This data set relates to HS black-grass proteome. The data set is described as follows: DiGE proteome of HS black-grass exposed to a wheat safener. The class given is in vivo, Alopecurus myosuroides. To be noted: safener 30 mM watered 4 days before harvest.

Each structure is given as a SMILES string.

For `CCCCCC(C)OC(=O)COc1ccc(Cl)c2cccnc12` (centres unmarked) [cloquintocet-mexyl], the “resolved polypeptides in leaves showing changes in abundance relative to controls” value (leaves, 131 of 512 protein spots) is recorded as 25%. Moreover, where the note is “stem, 26 of 874 protein spots”, the “stem proteome showing changes in abundance relative to controls” value is on record as 3%.

(Values after patent US20200025762A1, “NON-TARGET SITE RESISTANCE” (UNIVERSITY OF NEWCASTLE UPON TYNE, priority 2017, published 2020).)
